Assay results reported in PubChem BioAssay AID248 (DTP/NCI, 2004).
The list shows only some results of the screen, not a fair sample: it gathers tests that were run many times, whatever their T/C, doses with no T/C, and many T/C values between a quarter and a half above the control. Further doses and runs are listed elsewhere. T/C is the treated group as % of the vehicle group. Some doses have a count of surviving animals in place of a T/C: the source holds a T/C of zero for them, seemingly a mark for toxic or unscored doses. Some doses without a T/C left all or most animals alive at the check, yet need not have been tolerated: survival well below the control is almost never listed, so the zero probably covers shortened survival too. Counts of survivors are from the toxicity check (mostly the fifth day) where no day follows; animals may have died later. Schedule codes are those of the source, read here as Q, the interval in days (D) or hours (H), X, the number of doses. Some schedules carry Z or #; the key to these is not given. Where survival is the endpoint, the PubChem record calls one and a half times the control and up active, and a quarter to a half above the control has no call in these data; cut-offs in other NCI protocols can differ. Some T/C values are followed by the survivors on the day toxicity was checked, most often the fifth; without a count, all were alive then.

Test system: L1210 leukemia ip in BDF1 mice, survival T/C
Assay: NCI In Vivo Anticancer Drug Screen. Data for tumor model L1210 Leukemia (intraperitoneal) in B6D2F1 (BDF1) mice
Conditions: T/C endpoint: mean survival time, higher T/C = longer survival
[1] = dose: 400.0 mg/kg/injection, schedule: Q04DX003 (ip), vehicle: saline with Tween-80
[2] = dose: 400.0 mg/kg/injection, schedule: Q01DX001 (ip), vehicle: other
[3] = dose: 200.0 mg/kg/injection, schedule: Q04DX003 (ip), vehicle: acetone
[4] = dose: 200.0 mg/kg/injection, schedule: Q04DX003 (ip), vehicle: saline
[5] = dose: 400.0 mg/kg/injection, schedule: Q04DX003 (ip), vehicle: saline
[6] = dose: 100.0 mg/kg/injection, schedule: Q01DX001 (ip), vehicle: saline
[7] = dose: 200.0 mg/kg/injection, schedule: Q01DX001 (ip), vehicle: saline
[8] = dose: 400.0 mg/kg/injection, schedule: Q01DX001 (ip), vehicle: saline
[9] = dose: 100.0 mg/kg/injection, schedule: Q04DX003 (ip), vehicle: Klucel (hydroxypropylcellulose) (HPC)
[10] = dose: 200.0 mg/kg/injection, schedule: Q04DX003 (ip), vehicle: Klucel (hydroxypropylcellulose) (HPC)
[11] = dose: 400.0 mg/kg/injection, schedule: Q04DX003 (ip), vehicle: Klucel (hydroxypropylcellulose) (HPC)
[12] = dose: 50.0 mg/kg/injection, schedule: Q01DX001 (ip), vehicle: saline

For `CC1(C)N=C(N)N=C(N)N1c1cccc(C#N)c1`, the T/C (dose: 16.0 mg/kg/injection, schedule: Q01DX009 (ip), vehicle: saline) was 130 % of control, the T/C (dose: 24.0 mg/kg/injection, schedule: Q01DX009 (ip), vehicle: saline) was 136 % of control and the T/C (dose: 56.3 mg/kg/injection, schedule: Q01DX009 (ip), vehicle: saline) was 125 % of control. The T/C (dose: 84.5 mg/kg/injection, schedule: Q01DX009 (ip), vehicle: saline) was 127 % of control, the survivor count (dose: 126.0 mg/kg/injection, schedule: Q01DX009 (ip), vehicle: saline) was 4 of 6 and the T/C (dose: 126.75 mg/kg/injection, schedule: Q01DX009 (ip), vehicle: saline) was 131 % of control [5 of 6 alive].
`O=C(/C=C/c1ccncc1)c1cccc2ccccc12` was tested, and the survivor count [1] was 3 of 6.
`COc1ccc(C(=O)CC2CCCC(CC(=O)c3ccc(OC)cc3)N2C)cc1` (stereo not drawn) was tested, and the survivor count (dose: 300.0 mg/kg/injection, schedule: Q01DX001 (ip), vehicle: other) was 0 of 6.
For `COC(=O)N1C=CC2C=CC1C(C#N)(C#N)C2(C#N)C#N` (stereo not drawn), the survivor count (dose: 100.0 mg/kg/injection, schedule: Q04DX002 (ip), vehicle: Klucel (hydroxypropylcellulose) (HPC)) was 0 of 3, the survivor count (dose: 200.0 mg/kg/injection, schedule: Q04DX002 (ip), vehicle: Klucel (hydroxypropylcellulose) (HPC)) was 0 of 3 and the survivor count (dose: 400.0 mg/kg/injection, schedule: Q04DX002 (ip), vehicle: Klucel (hydroxypropylcellulose) (HPC)) was 0 of 3.
With `O=C(CCl)NCc1ccc(Cl)cc1` the survivor count [2] was 2 of 4.
In the case of `NC(=O)Nc1cccc2c1-c1ccccc1C2=O`, the survivor count [3] is reported as 6 of 6.
`CCCCNc1ccc([N+](=O)[O-])cc1[N+](=O)[O-]` was tested, and the survivor count (dose: 400.0 mg/kg/injection, schedule: Q04DX003 (ip), vehicle: other) was 6 of 6.
With `CN(C)CCCN1c2ccccc2Sc2c(Cl)cc(Cl)cc21` the survivor count (dose: 100.0 mg/kg/injection, schedule: Q01DX009 (ip), vehicle: saline) was 1 of 6, the survivor count [4] was 1 of 4 and the survivor count [5] was 0 of 4.
For `C[n+]1c(/C=C/c2c[nH]c3ccccc23)ccc2ccccc21`, the survivor count [6] was 3 of 6, the survivor count [7] was 0 of 6 and the survivor count [8] was 1 of 6.
For `CN(C)C1C(=O)C(C(N)=O)=C(O)C2(O)C(=O)C3=C(O)c4c(O)cccc4C(C)(O)C3C(O)C12` (stereo not drawn), the survivor count (dose: 150.0 mg/kg/injection, schedule: Q01DX Z (ip), vehicle: water) was 2 of 6.
For `COc1cccc(NC(=O)NCCCl)c1`, the survivor count [9] was 6 of 6, the survivor count [10] was 6 of 6 and the survivor count [11] was 6 of 6.
For `c1ccc2c(c1)NCCN2`, the survivor count [12] was 0 of 3, the survivor count (dose: 100.0 mg/kg/injection, schedule: Q01DX001 (ip), vehicle: saline with Tween-80) was 0 of 3 and the survivor count (dose: 200.0 mg/kg/injection, schedule: Q01DX001 (ip), vehicle: saline with Tween-80) was 0 of 3. The survivor count (dose: 400.0 mg/kg/injection, schedule: Q01DX001 (ip), vehicle: saline with Tween-80) was 0 of 3.
`Cc1cc2[nH]c(=O)[nH]c2cc1C` was tested, and the survivor count [1] was 2 of 6.
In the case of `C=CCOC1C=CC=CC=C1`, the survivor count (dose: 100.0 mg/kg/injection, schedule: Q01DX009 (ip), vehicle: Klucel (hydroxypropylcellulose) (HPC)) is reported as 0 of 6, the survivor count [10] is reported as 0 of 6 and the survivor count [11] is reported as 0 of 6.
In the case of `Cn1cnc([N+](=O)[O-])c1[Se]c1ncnc2c1ccn2C1OC(CO)C(O)C1O` (stereo not drawn), the survivor count (dose: 100.0 mg/kg/injection, schedule: Q01DX005 (ip), vehicle: saline) is reported as 2 of 6 and the survivor count (dose: 200.0 mg/kg/injection, schedule: Q01DX005 (ip), vehicle: saline) is reported as 0 of 6.
In the case of `O=C(Nc1ccc(Br)cc1C(=O)O)c1cccc(Br)c1`, the survivor count (dose: 200.0 mg/kg/injection, schedule: Q01DX001 (ip), vehicle: other) is reported as 0 of 6 and the survivor count [2] is reported as 0 of 6.
With `Nc1ccc(S(=O)(=O)c2cc(O)c3ccccc3c2O)cc1` the survivor count (dose: 50.0 mg/kg/injection, schedule: Q01DX009 (ip), vehicle: saline) was 0 of 6, the survivor count [9] was 2 of 6 and the survivor count [10] was 0 of 6. For the same molecule, the survivor count [11] was 1 of 6.
With `Brc1cnn2c1NCC2` the survivor count (dose: 100.0 mg/kg/injection, schedule: Q04DX003 (ip), vehicle: water) was 6 of 6, the survivor count (dose: 200.0 mg/kg/injection, schedule: Q04DX003 (ip), vehicle: water) was 6 of 6 and the survivor count (dose: 400.0 mg/kg/injection, schedule: Q01DX009 (ip), vehicle: water) was 0 of 6. The survivor count (dose: 400.0 mg/kg/injection, schedule: Q04DX003 (ip), vehicle: water) was 4 of 6.
For `CC[CH2][Sn]([Br])([CH2]CC(=O)OC)[CH2]CC(=O)OC`, the survivor count (dose: 400.0 mg/kg/injection, schedule: Q04DX002 (ip), vehicle: saline with Tween-80) was 0 of 3.
In the case of `Cl[Si]1(Cl)CCCCC1`, the survivor count (dose: 75.0 mg/kg/injection, schedule: Q01DX001 (ip), vehicle: saline) is reported as 4 of 6, the survivor count (dose: 150.0 mg/kg/injection, schedule: Q01DX001 (ip), vehicle: saline) is reported as 0 of 6 and the survivor count (dose: 300.0 mg/kg/injection, schedule: Q01DX001 (ip), vehicle: saline) is reported as 0 of 6.
For `CCOC(=O)CC/C(=C/c1cccc2ccccc12)[N+](=O)[O-]`, the survivor count [1] was 0 of 3.
`CCCOC(=O)C(C)(O)C(Cl)c1ccccc1` (stereo not drawn) was tested, and the T/C (dose: 50.0 mg/kg/injection, schedule: Q04DX002 (ip), vehicle: saline) was 125 % of control and the T/C (dose: 200.0 mg/kg/injection, schedule: Q04DX002 (ip), vehicle: saline) was 129 % of control.
`CC1CCC(C)(C)CC1(C)c1cc(CN(C)C)c(O)c(CN(C)C)c1` (stereo not drawn) was tested, and the survivor count (dose: 100.0 mg/kg/injection, schedule: Q04DX003 (ip), vehicle: acetone) was 3 of 6, the survivor count [3] was 0 of 6 and the survivor count (dose: 400.0 mg/kg/injection, schedule: Q04DX003 (ip), vehicle: acetone) was 0 of 6.
In the case of `CC[C@H](CC[C@@H](C)[C@H]1CC[C@H]2[C@@H]3CC=C4C[C@@H](O)CC[C@]4(C)[C@H]3CC[C@]12C)C(C)C`, the survivor count [6] is reported as 6 of 6, the survivor count [7] is reported as 6 of 6 and the survivor count [8] is reported as 4 of 6.
In the case of `CC[N+](CC)(CC)CCOc1cccc(OCC[N+](CC)(CC)CC)c1OCC[N+](CC)(CC)CC`, the survivor count (dose: 20.0 mg/kg/injection, schedule: Q01DX001 (ip), vehicle: saline) is reported as 0 of 6, the survivor count (dose: 40.0 mg/kg/injection, schedule: Q01DX001 (ip), vehicle: saline) is reported as 0 of 6 and the survivor count [12] is reported as 0 of 4. For the same molecule, the survivor count (dose: 80.0 mg/kg/injection, schedule: Q01DX001 (ip), vehicle: saline) was 0 of 6, the survivor count [6] was 0 of 4 and the survivor count [7] was 0 of 4. For the same molecule, the survivor count [8] was 0 of 4.
With `CN(C)C(=O)c1cc[n+](Cc2ccc(Cl)c(Cl)c2)cc1` the survivor count [4] was 1 of 6 and the survivor count [5] was 0 of 6.
With `O=C(Nc1cccc(C2=NCCN2)c1)c1ccc(C(=O)Nc2cccc(C3=NCCN3)c2)c([N+](=O)[O-])c1` the survivor count (dose: 10.0 mg/kg/injection, schedule: Q01DX Z (ip), vehicle: saline) was 0 of 6, the survivor count (dose: 15.0 mg/kg/injection, schedule: Q01DX Z (ip), vehicle: methylcellulose (MC)) was 1 of 6 and the survivor count (dose: 30.0 mg/kg/injection, schedule: Q01DX Z (ip), vehicle: methylcellulose (MC)) was 0 of 6. The survivor count (dose: 60.0 mg/kg/injection, schedule: Q01DX Z (ip), vehicle: methylcellulose (MC)) was 0 of 6.
With `CC(=O)N(N=O)c1ccc(Cl)cc1[N+](=O)[O-]` the survivor count (dose: 200.0 mg/kg/injection, schedule: Q01DX009 (ip), vehicle: saline) was 2 of 6.
In the case of `COCCCNP(=S)(N1CC1)N1CC1`, the T/C (dose: 8.0 mg/kg/injection, schedule: Q01DX Z (ip), vehicle: saline) is reported as 139 % of control and the survivor count (dose: 16.0 mg/kg/injection, schedule: Q01DX Z (ip), vehicle: saline) is reported as 6 of 6.
